The target in test [1] is raf (Xenopus laevis) (UniProt P09560). Description: co-immunoprecipitation with anti-Ha-ras from insulin-matured oocytes, blot (FIG. 4B).
The target is the same in test [2]. In words: co-immunoprecipitation with anti-Ha-ras from insulin-matured oocytes, blot with anti-raf (FIG. 4B).

The chains behind the UniProt entries cited, without tags or fusion partners.
UniProt P09560: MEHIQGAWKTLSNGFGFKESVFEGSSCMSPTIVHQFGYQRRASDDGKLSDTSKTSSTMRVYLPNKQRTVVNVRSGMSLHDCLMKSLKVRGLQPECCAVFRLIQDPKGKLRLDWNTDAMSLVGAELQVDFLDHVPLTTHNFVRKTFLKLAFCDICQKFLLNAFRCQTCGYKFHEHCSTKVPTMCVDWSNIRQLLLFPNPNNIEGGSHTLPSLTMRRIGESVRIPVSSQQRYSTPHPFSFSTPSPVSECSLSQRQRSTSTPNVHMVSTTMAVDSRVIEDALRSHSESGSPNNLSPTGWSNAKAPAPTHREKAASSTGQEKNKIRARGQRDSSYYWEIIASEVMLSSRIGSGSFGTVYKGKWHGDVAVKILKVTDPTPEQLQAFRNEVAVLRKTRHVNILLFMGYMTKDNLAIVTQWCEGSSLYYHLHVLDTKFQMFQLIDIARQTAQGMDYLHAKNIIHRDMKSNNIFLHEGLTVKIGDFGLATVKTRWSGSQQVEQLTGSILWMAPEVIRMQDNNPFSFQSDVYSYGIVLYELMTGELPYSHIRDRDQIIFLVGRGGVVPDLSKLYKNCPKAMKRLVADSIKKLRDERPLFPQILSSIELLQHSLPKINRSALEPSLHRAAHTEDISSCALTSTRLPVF

No constants are given. Whether binding was seen depends on the method and setting. In cells and extracts the contact can be indirect. Some binding calls cover weakened binding; strength is not graded here.

The values that follow come from US20080153754A1.

Consider “endogenous Ha-ras-p21 (insulin-activated wild-type ras-p21 of the oocytes) (from UniProt Q8UUZ4 1-186)”, for which the binding result in test [1] and in test [2] was “binds” each time.
